Data on one molecule can be found in patent US20070287665A1 (SOCIETE DE CONSEILS DE RECHERCHES ET D APPLICATIONS …, published 2007).

The target in the test is T1, U-II receptors (rat thoracic aorta tissue) (rat) (UniProt P49684).
T1 sequence (looked up): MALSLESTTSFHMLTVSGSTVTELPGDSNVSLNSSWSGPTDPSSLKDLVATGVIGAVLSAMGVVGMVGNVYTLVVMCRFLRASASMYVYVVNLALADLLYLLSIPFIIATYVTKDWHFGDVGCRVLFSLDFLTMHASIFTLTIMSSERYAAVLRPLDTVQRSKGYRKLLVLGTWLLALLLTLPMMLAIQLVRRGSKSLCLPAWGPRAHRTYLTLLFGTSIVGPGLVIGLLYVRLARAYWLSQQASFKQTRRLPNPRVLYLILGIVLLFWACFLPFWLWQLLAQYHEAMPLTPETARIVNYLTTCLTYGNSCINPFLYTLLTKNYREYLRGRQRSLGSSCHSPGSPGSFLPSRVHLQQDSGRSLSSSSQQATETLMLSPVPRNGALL
As to the kind of experiment: binding to rat aorta tissue; method not described.

Results are given in words; binding and its absence hold for the method and conditions named. Some entries that bind do so weakly or less than the wild type. Bridge positions count the residues as written; N and C are the ends. Ends that are not written are not given here.

With DCFWKYCV (cyclic via Cys2-Cys7 (c[...]); C-terminal free acid (-OH)) [Asp-c[Cys-Phe-Trp-Lys-Tyr-Cys]-Val-OH], the binding result is reported as “binds”.
